Measurements from paper PMC3157352.

Tests used:
[1] = target: T1, human RAD1, yeast two-hybrid fusion (human) (UniProt O60671); assay: two-hybrid; S. cerevisiae AH109, pGADT7 (Gal4 activation domain) and pGBKT7 (Gal4 binding domain) fusions; spot assay on SD-L-W-H and SD-L-W-H-A; RAD18 against the 9-1-1 components also with DNA damage (50 Gy IR, HU, MMS, CPT)
T1 sequence: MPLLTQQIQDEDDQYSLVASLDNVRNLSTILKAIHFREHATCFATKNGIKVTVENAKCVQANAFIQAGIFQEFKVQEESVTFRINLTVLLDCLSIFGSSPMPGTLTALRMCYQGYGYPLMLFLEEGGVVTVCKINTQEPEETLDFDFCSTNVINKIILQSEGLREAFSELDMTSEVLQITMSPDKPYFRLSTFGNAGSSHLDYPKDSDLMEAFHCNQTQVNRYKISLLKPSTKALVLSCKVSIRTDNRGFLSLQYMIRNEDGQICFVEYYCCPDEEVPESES

[2] = target: T2, human HUS1, yeast two-hybrid fusion (human) (UniProt O60921); assay: as above
T2 sequence: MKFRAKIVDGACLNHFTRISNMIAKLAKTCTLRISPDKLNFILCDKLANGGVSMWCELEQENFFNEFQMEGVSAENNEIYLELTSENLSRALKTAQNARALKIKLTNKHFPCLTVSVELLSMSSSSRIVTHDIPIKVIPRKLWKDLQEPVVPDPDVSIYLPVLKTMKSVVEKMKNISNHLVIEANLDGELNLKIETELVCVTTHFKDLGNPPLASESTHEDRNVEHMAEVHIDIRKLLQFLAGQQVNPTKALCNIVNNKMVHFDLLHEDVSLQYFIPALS

## human RAD9, yeast two-hybrid fusion
[1]
  binding: binds
[2]
  binding: binds

No constants are given. Whether binding was seen depends on the method and setting. A result given as binding can be weak or reduced; the word gives no strength. Tags and fused reporters may be left off the sequences shown.
